These results are taken from publication doi:10.1101/2022.06.10.494364.

Amino acid sequences for entries named in this document (tags omitted).
UniProt P51692: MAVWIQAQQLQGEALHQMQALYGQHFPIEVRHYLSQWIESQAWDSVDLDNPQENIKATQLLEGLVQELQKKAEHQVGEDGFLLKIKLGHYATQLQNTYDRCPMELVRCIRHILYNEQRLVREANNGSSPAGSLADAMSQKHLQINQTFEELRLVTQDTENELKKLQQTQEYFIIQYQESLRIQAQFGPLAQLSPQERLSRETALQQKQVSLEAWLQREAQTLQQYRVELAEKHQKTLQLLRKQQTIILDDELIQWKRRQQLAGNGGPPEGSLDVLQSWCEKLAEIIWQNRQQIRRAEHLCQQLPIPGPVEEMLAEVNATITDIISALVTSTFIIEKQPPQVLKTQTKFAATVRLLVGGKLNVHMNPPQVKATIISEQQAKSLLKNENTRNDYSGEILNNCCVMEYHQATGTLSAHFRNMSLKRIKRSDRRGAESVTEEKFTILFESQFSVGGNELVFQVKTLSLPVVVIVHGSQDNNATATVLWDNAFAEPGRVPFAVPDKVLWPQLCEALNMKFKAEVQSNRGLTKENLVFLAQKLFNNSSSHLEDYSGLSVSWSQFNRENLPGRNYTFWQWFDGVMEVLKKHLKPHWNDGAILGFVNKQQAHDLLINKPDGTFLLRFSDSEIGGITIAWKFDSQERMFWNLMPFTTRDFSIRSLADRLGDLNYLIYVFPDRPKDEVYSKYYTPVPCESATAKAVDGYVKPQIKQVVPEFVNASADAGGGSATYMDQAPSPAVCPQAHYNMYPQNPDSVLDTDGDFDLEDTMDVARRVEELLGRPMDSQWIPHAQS
UniProt P42229: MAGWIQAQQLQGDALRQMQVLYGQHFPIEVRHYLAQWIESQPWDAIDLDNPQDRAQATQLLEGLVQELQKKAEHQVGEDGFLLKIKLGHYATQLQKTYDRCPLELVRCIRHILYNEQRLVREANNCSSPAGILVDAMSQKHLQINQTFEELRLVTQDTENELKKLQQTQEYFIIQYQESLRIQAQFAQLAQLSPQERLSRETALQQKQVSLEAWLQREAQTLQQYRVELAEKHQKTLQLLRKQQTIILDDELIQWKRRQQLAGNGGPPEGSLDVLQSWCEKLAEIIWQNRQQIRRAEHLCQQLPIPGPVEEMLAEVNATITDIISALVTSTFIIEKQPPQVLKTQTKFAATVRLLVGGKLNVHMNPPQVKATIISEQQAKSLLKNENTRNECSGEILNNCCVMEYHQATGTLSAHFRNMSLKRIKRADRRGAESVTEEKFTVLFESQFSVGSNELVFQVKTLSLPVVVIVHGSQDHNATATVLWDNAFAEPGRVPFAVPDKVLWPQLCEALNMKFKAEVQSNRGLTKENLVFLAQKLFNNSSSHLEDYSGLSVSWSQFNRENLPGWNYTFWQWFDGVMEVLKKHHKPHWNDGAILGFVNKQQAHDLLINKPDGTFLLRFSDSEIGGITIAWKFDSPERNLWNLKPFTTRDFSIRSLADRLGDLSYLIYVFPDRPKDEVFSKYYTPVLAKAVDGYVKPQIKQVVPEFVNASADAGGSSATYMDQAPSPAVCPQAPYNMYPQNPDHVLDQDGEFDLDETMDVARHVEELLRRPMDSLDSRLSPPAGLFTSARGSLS
UniProt Q07912: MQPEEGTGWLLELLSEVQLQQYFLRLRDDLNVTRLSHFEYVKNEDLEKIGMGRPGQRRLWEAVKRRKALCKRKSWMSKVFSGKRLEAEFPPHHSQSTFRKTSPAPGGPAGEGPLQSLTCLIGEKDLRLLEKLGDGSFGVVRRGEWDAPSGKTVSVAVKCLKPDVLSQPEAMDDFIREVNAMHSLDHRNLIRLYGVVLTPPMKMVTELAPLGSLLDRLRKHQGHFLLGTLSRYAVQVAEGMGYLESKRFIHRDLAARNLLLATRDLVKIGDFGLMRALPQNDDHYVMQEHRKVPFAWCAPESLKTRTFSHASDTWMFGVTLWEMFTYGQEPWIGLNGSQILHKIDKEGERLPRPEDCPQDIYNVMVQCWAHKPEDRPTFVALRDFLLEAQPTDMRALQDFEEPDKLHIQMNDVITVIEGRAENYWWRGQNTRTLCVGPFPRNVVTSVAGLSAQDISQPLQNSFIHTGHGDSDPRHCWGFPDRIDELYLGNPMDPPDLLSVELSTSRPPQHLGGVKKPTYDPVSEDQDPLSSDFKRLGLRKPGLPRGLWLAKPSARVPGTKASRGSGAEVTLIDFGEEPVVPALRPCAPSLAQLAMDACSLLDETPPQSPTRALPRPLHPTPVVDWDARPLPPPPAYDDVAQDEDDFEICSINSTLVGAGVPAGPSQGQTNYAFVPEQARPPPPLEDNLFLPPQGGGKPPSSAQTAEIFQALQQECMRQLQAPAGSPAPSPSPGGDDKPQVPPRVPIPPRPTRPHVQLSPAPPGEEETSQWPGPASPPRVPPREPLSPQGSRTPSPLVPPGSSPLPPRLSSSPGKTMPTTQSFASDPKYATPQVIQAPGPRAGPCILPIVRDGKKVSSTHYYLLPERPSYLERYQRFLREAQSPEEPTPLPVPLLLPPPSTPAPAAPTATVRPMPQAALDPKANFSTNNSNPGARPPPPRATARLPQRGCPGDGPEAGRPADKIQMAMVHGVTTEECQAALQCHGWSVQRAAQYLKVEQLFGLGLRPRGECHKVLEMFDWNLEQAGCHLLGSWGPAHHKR

For one test, the target named is FLAG-STAT5B (UniProt P51692). Nature of the test: co-IP.
A further test addresses FLAG-STAT5A (UniProt P42229). Nature of the test: co-IP.

These are yes or no findings as the source states them, for the method shown. Binding seen in cells or lysates may run through a third protein. Some results given as binding are weak or reduced against the parent protein; the word gives no strength.

On to “HA-ACK (wild type activated Cdc42-associated kinase) (from UniProt Q07912 1-1038) (enzyme)”, for which the binding result in the test with FLAG-STAT5B and with FLAG-STAT5A was “binds” throughout.
